Data published in PMC8119493.
Results are given in words; binding and its absence hold for the method and conditions named. Binding seen in cells or lysates may run through a third protein. Some results given as binding are weak or reduced against the parent protein; the word gives no strength.

Target: T1, syntaxin 17 (Stx17), rat liver (rat (endogenous in rat liver)) (UniProt Q9Z158)
T1 sequence: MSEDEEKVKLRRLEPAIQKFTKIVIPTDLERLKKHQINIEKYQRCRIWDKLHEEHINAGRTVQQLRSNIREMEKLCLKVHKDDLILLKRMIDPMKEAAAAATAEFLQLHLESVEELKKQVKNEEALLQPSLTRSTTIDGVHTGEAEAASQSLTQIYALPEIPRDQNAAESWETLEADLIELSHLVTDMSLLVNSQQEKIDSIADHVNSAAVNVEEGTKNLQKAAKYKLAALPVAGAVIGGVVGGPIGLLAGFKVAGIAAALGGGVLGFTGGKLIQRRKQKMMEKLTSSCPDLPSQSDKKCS
Assay: co-IP; rat liver; anti-Stx 17 for immunoprecipitation, anti-Vamp 8 for western blot; rats treated with D-GalN/LPS with or without GA

B1: vesicle-associated membrane protein 8 (Vamp8), rat liver (protein, UniProt Q9WUF4 1-100)
chain: MEASGSAGNDRVRNLQSEVEGVKNIMTQNVERILARGENLDHLRNKTEDLEATSEHFKTTSQKVARKFWWKNVKMIVIICVIVLIILILIILFATGTIPT
binding: binds
